These are yes or no findings as the source states them, for the method shown. Binding seen in cells or lysates may run through a third protein. Some results given as binding are weak or reduced against the parent protein; the word gives no strength.
Target: Scribble (human (endogenous in MCF10A)) (UniProt Q14160)
Experiment: co-IP; endogenous proteins in NC and MCF10A-shDLG5 (DLG5 knock-down) cells, detected by western blot; which protein was precipitated not given

Chains of the proteins cited; added tags and fusions are not shown.
UniProt Q14160: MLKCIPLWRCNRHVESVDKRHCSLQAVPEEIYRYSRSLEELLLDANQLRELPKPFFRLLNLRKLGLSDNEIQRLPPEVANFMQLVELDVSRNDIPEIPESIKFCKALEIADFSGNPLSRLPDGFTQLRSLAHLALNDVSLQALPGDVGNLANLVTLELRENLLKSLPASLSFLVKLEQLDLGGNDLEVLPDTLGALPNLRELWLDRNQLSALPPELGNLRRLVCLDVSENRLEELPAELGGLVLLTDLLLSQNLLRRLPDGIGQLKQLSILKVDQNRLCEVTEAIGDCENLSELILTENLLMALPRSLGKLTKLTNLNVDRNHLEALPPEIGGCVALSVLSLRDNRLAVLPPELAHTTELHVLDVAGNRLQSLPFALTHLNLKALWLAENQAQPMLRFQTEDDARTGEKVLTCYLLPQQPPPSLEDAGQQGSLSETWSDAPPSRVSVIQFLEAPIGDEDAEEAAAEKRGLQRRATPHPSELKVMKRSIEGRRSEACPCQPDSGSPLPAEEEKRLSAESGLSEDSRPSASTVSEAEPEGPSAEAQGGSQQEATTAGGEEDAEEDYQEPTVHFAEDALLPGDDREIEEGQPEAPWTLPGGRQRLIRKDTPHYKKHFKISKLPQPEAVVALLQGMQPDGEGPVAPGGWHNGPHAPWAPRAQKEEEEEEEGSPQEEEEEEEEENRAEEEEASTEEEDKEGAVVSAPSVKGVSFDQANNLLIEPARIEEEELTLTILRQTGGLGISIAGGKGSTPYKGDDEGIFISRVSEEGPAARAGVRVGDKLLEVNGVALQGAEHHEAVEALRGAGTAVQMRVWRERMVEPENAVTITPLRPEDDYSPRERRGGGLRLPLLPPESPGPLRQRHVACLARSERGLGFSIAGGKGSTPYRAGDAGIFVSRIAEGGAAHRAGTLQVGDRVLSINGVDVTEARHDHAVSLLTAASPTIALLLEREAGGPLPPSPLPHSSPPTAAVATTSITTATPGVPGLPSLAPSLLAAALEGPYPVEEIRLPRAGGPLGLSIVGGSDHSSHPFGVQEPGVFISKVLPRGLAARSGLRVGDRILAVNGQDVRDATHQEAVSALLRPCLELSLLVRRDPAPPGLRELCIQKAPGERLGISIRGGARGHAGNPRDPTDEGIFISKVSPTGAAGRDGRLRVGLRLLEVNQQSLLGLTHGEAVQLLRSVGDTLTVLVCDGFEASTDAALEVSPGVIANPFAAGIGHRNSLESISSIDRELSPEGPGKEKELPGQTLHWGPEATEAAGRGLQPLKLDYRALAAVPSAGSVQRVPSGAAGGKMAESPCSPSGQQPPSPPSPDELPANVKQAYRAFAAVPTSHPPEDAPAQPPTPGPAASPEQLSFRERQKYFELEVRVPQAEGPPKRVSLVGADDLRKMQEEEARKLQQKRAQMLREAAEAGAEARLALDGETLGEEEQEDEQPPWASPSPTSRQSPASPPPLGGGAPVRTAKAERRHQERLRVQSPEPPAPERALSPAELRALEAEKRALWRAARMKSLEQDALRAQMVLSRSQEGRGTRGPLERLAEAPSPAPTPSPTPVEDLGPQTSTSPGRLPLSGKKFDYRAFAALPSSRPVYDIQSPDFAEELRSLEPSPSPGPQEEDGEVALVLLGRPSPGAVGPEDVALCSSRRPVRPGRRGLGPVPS
UniProt Q8TDM6: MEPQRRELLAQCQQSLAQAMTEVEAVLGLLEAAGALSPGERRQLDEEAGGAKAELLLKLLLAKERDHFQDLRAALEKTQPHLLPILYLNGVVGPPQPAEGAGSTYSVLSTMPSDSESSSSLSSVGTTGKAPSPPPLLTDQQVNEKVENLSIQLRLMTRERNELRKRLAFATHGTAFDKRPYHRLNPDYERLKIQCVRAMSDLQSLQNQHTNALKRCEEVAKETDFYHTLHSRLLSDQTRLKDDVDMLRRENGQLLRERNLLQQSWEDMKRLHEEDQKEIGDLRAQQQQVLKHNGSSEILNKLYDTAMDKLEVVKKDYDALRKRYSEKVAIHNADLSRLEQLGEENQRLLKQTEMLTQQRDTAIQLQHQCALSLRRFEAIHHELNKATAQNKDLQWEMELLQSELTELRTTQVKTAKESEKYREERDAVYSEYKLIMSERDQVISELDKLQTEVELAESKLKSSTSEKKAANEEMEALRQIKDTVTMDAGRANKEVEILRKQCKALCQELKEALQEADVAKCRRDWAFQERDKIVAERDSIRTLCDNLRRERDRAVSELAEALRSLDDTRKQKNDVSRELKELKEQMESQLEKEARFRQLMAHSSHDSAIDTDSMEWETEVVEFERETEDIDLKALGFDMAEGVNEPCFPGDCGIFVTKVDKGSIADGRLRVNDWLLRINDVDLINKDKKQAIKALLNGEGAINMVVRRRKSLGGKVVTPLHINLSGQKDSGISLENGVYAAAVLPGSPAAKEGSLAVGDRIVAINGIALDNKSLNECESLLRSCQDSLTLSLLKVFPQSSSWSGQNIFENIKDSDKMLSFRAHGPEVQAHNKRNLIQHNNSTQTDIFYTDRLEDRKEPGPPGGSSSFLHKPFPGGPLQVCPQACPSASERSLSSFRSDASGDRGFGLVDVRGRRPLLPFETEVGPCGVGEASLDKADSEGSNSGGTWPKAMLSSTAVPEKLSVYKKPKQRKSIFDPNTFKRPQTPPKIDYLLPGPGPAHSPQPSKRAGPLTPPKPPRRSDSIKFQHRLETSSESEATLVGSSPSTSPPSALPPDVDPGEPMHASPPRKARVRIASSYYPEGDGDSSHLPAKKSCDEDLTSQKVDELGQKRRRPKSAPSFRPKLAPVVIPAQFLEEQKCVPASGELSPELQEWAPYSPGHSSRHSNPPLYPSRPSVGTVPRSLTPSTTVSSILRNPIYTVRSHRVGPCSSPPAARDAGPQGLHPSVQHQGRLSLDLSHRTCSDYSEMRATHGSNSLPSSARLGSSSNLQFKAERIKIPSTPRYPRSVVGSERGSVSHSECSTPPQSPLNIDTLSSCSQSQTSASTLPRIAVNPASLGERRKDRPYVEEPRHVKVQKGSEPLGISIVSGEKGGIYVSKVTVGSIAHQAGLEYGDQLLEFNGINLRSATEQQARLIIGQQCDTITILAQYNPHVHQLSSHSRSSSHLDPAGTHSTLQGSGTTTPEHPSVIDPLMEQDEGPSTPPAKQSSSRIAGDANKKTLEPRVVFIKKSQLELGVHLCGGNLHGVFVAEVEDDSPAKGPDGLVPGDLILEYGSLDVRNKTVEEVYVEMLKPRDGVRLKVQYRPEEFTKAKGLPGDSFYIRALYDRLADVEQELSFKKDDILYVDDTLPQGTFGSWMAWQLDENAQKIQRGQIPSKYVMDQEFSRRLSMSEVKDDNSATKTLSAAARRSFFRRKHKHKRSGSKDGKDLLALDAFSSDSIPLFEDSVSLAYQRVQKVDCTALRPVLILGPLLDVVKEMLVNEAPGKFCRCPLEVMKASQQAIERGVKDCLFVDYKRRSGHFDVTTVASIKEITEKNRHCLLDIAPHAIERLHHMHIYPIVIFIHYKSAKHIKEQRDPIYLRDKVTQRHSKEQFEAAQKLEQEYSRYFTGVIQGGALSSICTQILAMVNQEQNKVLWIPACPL

binding: binds
Substance: Discs Large Homolog 5 (DLG5) (from UniProt Q8TDM6 1-1919)

Source: PMC5294562
